According to the supplement of paper PMC11264405:

Key:
Experiment in all cases: minimum inhibitory concentration
metronidazole = compound: Cc1ncc([N+](=O)[O-])n1CCO [metronidazole]
rifampicin = compound: CO[C@H]1/C=C/O[C@@]2(C)Oc3c(C)c(O)c4c(O)c(c(/C=N/N5CCN(C)CC5)c(O)c4c3C2=O)NC(=O)/C(C)=C\C=C\[C@H](C)[C@H](O)[C@@H](C)[C@@H](O)[C@@H](C)[C@H](OC(C)=O)[C@@H]1C [rifampicin]
imipenem = compound: C[C@@H](O)[C@H]1C(=O)N2C(C(=O)O)=C(SCCNC=N)C[C@H]12 [imipenem]
clindamycin = compound: CCC[C@@H]1C[C@@H](C(=O)N[C@@H]([C@H]2O[C@H](SC)[C@H](O)[C@@H](O)[C@H]2O)[C@H](C)Cl)N(C)C1 [clindamycin]
tigecycline = compound: CN(C)c1cc(NC(=O)CNC(C)(C)C)c(O)c2c1C[C@H]1C[C@H]3[C@H](N(C)C)C(O)=C(C(N)=O)C(=O)[C@@]3(O)C(O)=C1C2=O [tigecycline]
linezolid = compound: CC(=O)NC[C@H]1CN(c2ccc(N3CCOCC3)c(F)c2)C(=O)O1 [linezolid]
fidaxomicin = compound: CCc1c(Cl)c(O)c(Cl)c(O)c1C(=O)O[C@H]1[C@H](O)[C@H](OC)[C@H](OC/C2=C\C=C\C[C@H](O)/C(C)=C/[C@H](CC)[C@@H](O[C@@H]3OC(C)(C)[C@@H](OC(=O)C(C)C)[C@H](O)[C@@H]3O)/C(C)=C/C(C)=C/C[C@@H]([C@@H](C)O)OC2=O)O[C@@H]1C [fidaxomicin]
meropenem = compound: C[C@@H](O)[C@H]1C(=O)N2C(C(=O)O)=C(S[C@@H]3CN[C@H](C(=O)N(C)C)C3)[C@H](C)[C@H]12 [meropenem]
vancomycin = compound: CN[C@H](CC(C)C)C(=O)N[C@H]1C(=O)N[C@@H](CC(N)=O)C(=O)N[C@H]2C(=O)N[C@H]3C(=O)N[C@H](C(=O)N[C@H](C(=O)O)c4cc(O)cc(O)c4-c4cc3ccc4O)[C@H](O)c3ccc(c(Cl)c3)Oc3cc2cc(c3O[C@@H]2O[C@H](CO)[C@@H](O)[C@H](O)[C@H]2O[C@H]2C[C@](C)(N)[C@H](O)[C@H](C)O2)Oc2ccc(cc2Cl)[C@H]1O [vancomycin]

| Test System | minimum inhibitory concentration (metronidazole) [mg/L] | minimum inhibitory concentration (rifampicin) [ng/mL] | minimum inhibitory concentration (imipenem) [mg/L] | minimum inhibitory concentration (clindamycin) [mg/L] | minimum inhibitory concentration (tigecycline) [mg/L] | minimum inhibitory concentration (linezolid) [mg/L] | minimum inhibitory concentration (fidaxomicin) [mg/L] | minimum inhibitory concentration (meropenem) [mg/L] | minimum inhibitory concentration (vancomycin) [mg/L] |
| --- | --- | --- | --- | --- | --- | --- | --- | --- | --- |
| Clostridioides difficile PCR ribotype 046 isolate #164 (European region: South, country: Spain, isolate source: Human, ribotype: 046) | 0.25 | < 1 | 4 | 16 | 0.06 | 2 | 0.06 | 2 | 0.5 |
| Clostridioides difficile PCR ribotype 046 isolate #165 (European region: South, country: Spain, isolate source: Human, ribotype: 046) | 0.25 | < 1 | 4 | 64 | 0.06 | 2 | 0.008 | 4 | 1 |
| Clostridioides difficile PCR ribotype 046 isolate #166 (European region: North, country: UK, isolate source: Human, ribotype: 046) | < 0.125 | < 1 | 4 | > 128 | 0.06 | 2 | 0.03 | 2 | 0.5 |
| Clostridioides difficile PCR ribotype 046 isolate #324 (European region: South, country: Spain, isolate source: Animal, ribotype: 046) | 0.25 | < 1 | 1 | 0.5 | 0.06 | 2 | 0.06 | 4 | 0.5 |
| Clostridioides difficile PCR ribotype 046 isolate #325 (European region: North, country: Sweden, isolate source: Animal, ribotype: 046) | < 0.125 | < 1 | 2 | 8 | 0.125 | 2 | 0.03 | 4 | 0.5 |
| Clostridioides difficile PCR ribotype 046 isolate #326 (European region: North, country: Sweden, isolate source: Animal, ribotype: 046) | < 0.125 | < 1 | 2 | 16 | 0.125 | 2 | 0.03 | 4 | 1 |
| Clostridioides difficile PCR ribotype 050 isolate #167 (European region: North, country: UK, isolate source: Human, ribotype: 050) | < 0.125 | < 1 | 2 | 8 | < 0.03 | 2 | 0.008 | 2 | 0.5 |
| Clostridioides difficile PCR ribotype 050 isolate #328 (European region: South, country: Italy, isolate source: Animal, ribotype: 050) | < 0.125 | < 1 | 2 | 8 | 0.125 | 2 | 0.03 | 4 | 0.5 |
| Clostridioides difficile PCR ribotype 057 isolate #168 (European region: South, country: Spain, isolate source: Human, ribotype: 057) | < 0.125 | 2 | 4 | 16 | < 0.03 | 2 | 0.03 | 4 | 1 |
| Clostridioides difficile PCR ribotype 057 isolate #329 (European region: West, country: Netherlands, isolate source: Animal, ribotype: 057) | 0.25 | < 1 | 2 | 64 | < 0.03 | 2 | 0.015 | 2 | 0.5 |
| Clostridioides difficile PCR ribotype 057 isolate #330 (European region: West, country: France, isolate source: Animal, ribotype: 057) | 0.25 | < 1 | 2 | 8 | < 0.03 | 2 | 0.06 | 4 | 0.5 |
| Clostridioides difficile PCR ribotype 058 isolate #169 (European region: North, country: UK, isolate source: Human, ribotype: 058) | < 0.125 | < 1 | 2 | 4 | 0.06 | 2 | 0.06 | 4 | 1 |
| Clostridioides difficile PCR ribotype 062 isolate #331 (European region: West, country: Netherlands, isolate source: Animal, ribotype: 062) | 0.25 | < 1 | 2 | 2 | < 0.03 | 2 | 0.008 | 4 | 0.5 |
| Clostridioides difficile PCR ribotype 064 isolate #170 (European region: North, country: UK, isolate source: Human, ribotype: 064) | 0.5 | < 1 | 4 | 1 | 0.06 | 2 | 0.03 | 2 | 0.5 |
| Clostridioides difficile PCR ribotype 066 isolate #171 (European region: North, country: Sweden, isolate source: Human, ribotype: 066) | 0.25 | < 1 | 2 | 4 | < 0.03 | 2 | 0.004 | 2 | 1 |
| Clostridioides difficile PCR ribotype 070 isolate #172 (European region: East, country: Romania, isolate source: Human, ribotype: 070) | < 0.125 | < 1 | 2 | 4 | < 0.03 | < 0.125 | 0.015 | 4 | 0.5 |
| Clostridioides difficile PCR ribotype 070 isolate #173 (European region: South, country: Italy, isolate source: Human, ribotype: 070) | < 0.125 | < 1 | 2 | 4 | < 0.03 | 2 | 0.06 | 2 | < 0.125 |
| Clostridioides difficile PCR ribotype 073 isolate #174 (European region: South, country: Spain, isolate source: Human, ribotype: 073) | < 0.125 | 2 | 4 | 8 | < 0.03 | 2 | 0.03 | 4 | 0.5 |
| Clostridioides difficile PCR ribotype 073 isolate #175 (European region: South, country: Spain, isolate source: Human, ribotype: 073) | < 0.125 | 2 | 4 | 1 | < 0.03 | 2 | 0.015 | 2 | 0.5 |
| Clostridioides difficile PCR ribotype 073 isolate #332 (European region: West, country: Netherlands, isolate source: Animal, ribotype: 073) | 0.25 | < 1 | 2 | 16 | 0.25 | 2 | 0.06 | 4 | 0.5 |
| Clostridioides difficile PCR ribotype 076 isolate #176 (European region: North, country: UK, isolate source: Human, ribotype: 076) | 0.25 | < 1 | 4 | 8 | 0.06 | 2 | 0.06 | 4 | 0.5 |
| Clostridioides difficile PCR ribotype 078 isolate #179 (European region: North, country: Sweden, isolate source: Human, ribotype: 078) | < 0.125 | < 1 | 2 | 1 | < 0.03 | 2 | 0.015 | 2 | 1 |
| Clostridioides difficile PCR ribotype 078 isolate #180 (European region: West, country: France, isolate source: Human, ribotype: 078) | 0.25 | < 1 | 2 | 8 | < 0.03 | 2 | 0.06 | 2 | 0.5 |
| Clostridioides difficile PCR ribotype 078 isolate #182 (European region: South, country: Spain, isolate source: Human, ribotype: 078) | < 0.125 | < 1 | 4 | 2 | 0.06 | 2 | 0.06 | 2 | 1 |
| Clostridioides difficile PCR ribotype 078 isolate #183 (European region: South, country: Spain, isolate source: Human, ribotype: 078) | < 0.125 | < 1 | 2 | 2 | 0.06 | 2 | 0.06 | 2 | 0.5 |
| Clostridioides difficile PCR ribotype 078 isolate #185 (European region: South, country: Spain, isolate source: Human, ribotype: 078) | 0.25 | < 1 | 2 | 16 | < 0.03 | 2 | 0.06 | 2 | 1 |

6 entries from above, with bars between the fields.
Test System | minimum inhibitory concentration (metronidazole) [mg/L] | minimum inhibitory concentration (rifampicin) [ng/mL] | minimum inhibitory concentration (imipenem) [mg/L] | minimum inhibitory concentration (clindamycin) [mg/L] | minimum inhibitory concentration (tigecycline) [mg/L] | minimum inhibitory concentration (linezolid) [mg/L] | minimum inhibitory concentration (fidaxomicin) [mg/L] | minimum inhibitory concentration (meropenem) [mg/L] | minimum inhibitory concentration (vancomycin) [mg/L]
Clostridioides difficile PCR ribotype 070 isolate #172 (European region: East, country: Romania, isolate source: Human, ribotype: 070) | < 0.125 | < 1 | 2 | 4 | < 0.03 | < 0.125 | 0.015 | 4 | 0.5
Clostridioides difficile PCR ribotype 070 isolate #173 (European region: South, country: Italy, isolate source: Human, ribotype: 070) | < 0.125 | < 1 | 2 | 4 | < 0.03 | 2 | 0.06 | 2 | < 0.125
Clostridioides difficile PCR ribotype 073 isolate #174 (European region: South, country: Spain, isolate source: Human, ribotype: 073) | < 0.125 | 2 | 4 | 8 | < 0.03 | 2 | 0.03 | 4 | 0.5
Clostridioides difficile PCR ribotype 073 isolate #175 (European region: South, country: Spain, isolate source: Human, ribotype: 073) | < 0.125 | 2 | 4 | 1 | < 0.03 | 2 | 0.015 | 2 | 0.5
Clostridioides difficile PCR ribotype 073 isolate #332 (European region: West, country: Netherlands, isolate source: Animal, ribotype: 073) | 0.25 | < 1 | 2 | 16 | 0.25 | 2 | 0.06 | 4 | 0.5
Clostridioides difficile PCR ribotype 076 isolate #176 (European region: North, country: UK, isolate source: Human, ribotype: 076) | 0.25 | < 1 | 4 | 8 | 0.06 | 2 | 0.06 | 4 | 0.5
